According to paper doi:10.1101/2024.06.24.600492:
These are yes or no findings as the source states them, for the method shown. In cells and extracts the contact can be indirect. Some entries that bind do so weakly or less than the wild type.

Amino acid sequences for entries named in this document (tags omitted). Residues count along the entry.
UniProt P18206, 1-836: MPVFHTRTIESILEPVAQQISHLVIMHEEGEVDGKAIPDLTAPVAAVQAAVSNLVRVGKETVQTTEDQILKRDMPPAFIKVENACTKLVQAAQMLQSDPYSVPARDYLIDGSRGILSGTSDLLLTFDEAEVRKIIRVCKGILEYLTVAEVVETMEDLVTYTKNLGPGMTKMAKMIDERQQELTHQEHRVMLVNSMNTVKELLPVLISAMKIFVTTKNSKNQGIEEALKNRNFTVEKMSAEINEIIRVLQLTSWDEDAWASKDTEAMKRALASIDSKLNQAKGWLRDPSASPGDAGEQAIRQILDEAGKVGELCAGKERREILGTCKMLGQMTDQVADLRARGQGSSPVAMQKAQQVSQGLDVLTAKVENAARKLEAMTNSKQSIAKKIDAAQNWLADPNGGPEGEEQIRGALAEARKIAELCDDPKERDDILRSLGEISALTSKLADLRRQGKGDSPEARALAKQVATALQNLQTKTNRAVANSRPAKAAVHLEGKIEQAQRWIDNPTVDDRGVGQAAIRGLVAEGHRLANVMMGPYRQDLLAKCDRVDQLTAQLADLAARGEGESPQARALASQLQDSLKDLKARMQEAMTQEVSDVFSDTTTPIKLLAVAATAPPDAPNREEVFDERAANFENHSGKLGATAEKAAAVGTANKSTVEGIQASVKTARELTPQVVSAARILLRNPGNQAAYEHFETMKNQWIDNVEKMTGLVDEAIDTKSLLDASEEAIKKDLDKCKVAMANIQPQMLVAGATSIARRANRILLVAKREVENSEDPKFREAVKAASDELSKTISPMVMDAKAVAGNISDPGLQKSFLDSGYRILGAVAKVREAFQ

Biological target: 3xFLAG-Sca4 (full-length R. parkeri Sca4) (Rickettsia parkeri) (UniProt Q9AJ75)
Assay: co-IP

For “V5-vinculin head domain (V5-Vinc 1-836aa) (from UniProt P18206 1-836) (domain or fragment)”, the binding was “binds”.
